These results are taken from article doi:10.1101/684258.

Like-named read-outs stand apart in the source and are kept apart here. No constants are given. Whether binding was seen depends on the method and setting. Binding seen in cells or lysates may run through a third protein. These calls come from enrichment with a bait or labelling near it, and not all partners need be listed. For some assays here: No binding means not detected with the bait.

Experiment in all cases: affinity purification with mass spectrometry
Test [1] deals with TRAPP-interacting plant protein fused to YFP (35S:TRIPP-YFP in tripp-1) (Arabidopsis thaliana).
Test [2] addresses AtTRS33-YFP (35S-TRS33-YFP) (Arabidopsis thaliana).
In test [3] the target is TRAPP-interacting plant protein fused to YFP (35S:TRIPP-YFP in tripp-1) (Arabidopsis thaliana). This is another data set of the same source.

Regarding TCA17, endogenous (from UniProt Q9SKS7), the binding entry in test [1] is “binds”.
Regarding TRS23, endogenous (from UniProt Q9LZ97), the binding result in test [1] was “binds”.
For “TRAPPC11, endogenous (from UniProt F4JXM9)”, the binding entry in test [1] is given as “no binding”.
Take “TRAPPC13, endogenous (from UniProt O82263)”: the binding entry in test [1] was “no binding”.
Same read-out and setting: the value for BET5, endogenous (from UniProt Q9SYB8) was “binds”; that for TRS20, endogenous (from UniProt F4HTY0) was “binds”; that for TRS31, endogenous (from UniProt Q9FGU1) was “binds”.

B1: AtTRS130, endogenous (protein, UniProt F4K0C4 1-1259)
chain: MANYLAQFQTIKNSCDRLVAAVEDVCDLWPTVKGLFEEHQPLKRAFLTNKTRNPVFVENLPVEFILTTDARLRSRFPQEQYLFWFREPYATIVLVTCEDLDEFKNILKPRLKLIVQNDEREWFIVFVSKAHPSNDQATKNVKKVYAKLEVDFSSKKRERCCKLDVHGPEGNFWEDLELKITECIRNTLDRRAQFYEDEIRKLSEQRFMPIWNFCNFFILKESLAFIFEMAHLHEDALREYDELELCYLETVNMPGKQRDFGGFDGEDDQAVLLKPGSKPLTQIVQDDSFREFEFRQYLFACQSRLLFKLNRPFEVASRGYSFVISFAKALTLHESVLPFCMREVWVITACLALIEATASHHHDGVVAPDIEKEFFRLQGDLYSLSRVKFMRLGYLIGYGTDIEKSPLNSACLSMLPWPKPAVWPSLPQDASSEVLEKEKTILQATSRTKHFGIQRKALPLEPSVLLRVANRRRASLSTGNIPEMFDGRPSFTEGSGLEASPRTPSSLKVQAPPMSRTNSSPGNFESPLDRPMRLAEIFVAAEHALRLTISDHDLLKTLSSIQDFENKYLNLTKGAAENYHRSWWKRHGVVLDGEIAAVCFKHGKYDLAANSYEKVCALYAGEGWQDLLAEVLPNLAQCQKILDDQAGYMSSCVRLLSLDKGLFSSKERQAFQSEVVTLAHSEMKNPVPLDVSSLITFSGNTGPPLQLCDGDPGNLSVTVWSGFPDDITLDSLSLTLVATNNTDEGGQALKSSAATVLNPGRNTITFALPPQKPGSYVLGVVTGQIGRLRFRSHSFSKGGPADSDDFMSYEKPTRPILKVSKPRALVDLAAAVSSALLINEAQWIGIIVRPIAYSLKGAILHIDTGPGLKIEDSYGIEMERYMDADCDTGASKAEVFVEDSPVSSKRDSEVLNLCDGKIVFSDWASNVSSILWVPVRALSEKLARGSSSVTPLKQDILEGMRTVALKLEFGVHHNQIFERTIAAHFTDPFDVTTRVANKCNDGTLVLQVMLHSLVKANLIVLDVWLDLQDGFIHGQNDGRPTSTFFPLVVSPGSRAAVVFSICLDKSMSSEGKDLQLPESILNIKYGIHGDRAAGAHRPVDADHSETDTEGRDLVFKSAIVLQRPVLDPCLTVGFLPLPSDGLRVGKLITMQWRVERLKELKESEAVEQQHDEVLYEVNANSENWMIAGRKRGHVSLSEEQGSRVVISILCVPLVAGYVRPPQLGLPNVEEANVSSNPSGPHLVCVLPPLLSSSYCLPVK
For the molecule B1, the binding entry in test [2] and in test [3] was “binds” throughout.

B2: AtTRS120, endogenous (protein, UniProt Q9FY61 1-1186)
chain: MEPDVSIETLSIIRIAVLPIGTIPPTLLRDYHSMLLRHHTIALSAISSFYTEHQKSPFTNQPWDSGSLRFKFVLGGSPPSPWEDFQSNRKMLAVIGLCHCPSSPDLDSVTEKFNVACKSYSSALVRRCFAFSPGDSQLEDGDKKGENLILFPPSDKQTQEFHLQTMMQDIAASLLMEFEKWVLQAESAGTILKTPLDSQASLNSEEVIKAKKRRLGRAQKTIGDYSLLAGSPVDANAHYSTALELARLTGDYFWYAGALEGSVCALLVDRMGQRDVALEDEVRYRYTNVILHYRKSFIQEIAQRVSPLSFELEATLKLARFLCRRELAKEVVELLTNAADGAKSLIDASDRLILYVEVARLFGALGYQRKAAFFCRQVAQLYLQQDNRLAAISAMQVLSMTTDAYRIQSRASMSKVSVNNETGRLPDAGKMHHHSIVSLFESHWSTLQMVVLREILLSAVRAGDPLAAWSAAARLLRWHYPLITPSGQNGLANSLANSADRLPSGTRCADPALPFVRLFSFPLHSSQVDIVKRNPAREDWWTGSAPSGPFIYTPFSKGDANESSKQELIWVVGEPVQVLVELANPCCFDLRIDSIYLSAHSSNFDAFPVSVDIPPNSAKVITLSGIPTAVGPVTIPGCTVHCFGVITEHVFRDVDNLLLGAAQGLVFSDPFRSCGSAKLRHVFVPNISVAPPLPLLVANVVGGDGAIILYEGEIREVCINFANAGTVPIVQAHVSLSGKNQDAVISIADEALQSALPLKPGAQVTLPVTLKAWHVGPTDSDNTMSSGRNAAGNTGRPKDGTSPSLLIHYAGPLSNNGDSQEKESIVPPGRRLVVPLQICVLQGLSFVKARLLSMEIPAHVSDNLRDEDIERESNADSLVKINPFRGSWGLRFLELELSNPTDVVFEISVFVQLENSAKEDDSSPVQDSPEYEYPKTRIDRDYSARVLIPLEHFKLPVLDGSFFTKDPPPGSPSSSRNPSFSEKNTKAEINTLIKNLISKIKVRWQSGRNSSGELDIKDAIQTALQTTVMDVLLPDPLTFGFRLVRNGLEKDPETKAESPFSKGSVLSHEVTPMEVLVRNNTSEAIKLNLSVTCRDVAGQNCTEGADATVLWAGALSGISMEVAPLQEARHCFSLFFLVPGEYTMVAAAVIEDANNVLRARAGTASPNEPIFCRGPPFHVCVAGGAL
With B2, the binding entry in test [2] and in test [3] was “binds” each time.
